Experimental data from patent publication EP3725799B1, “PEPTIDE BINDING TO PL-L1 AND USE THEREOF” (Kyungpook National University Industry-Academic Cooperation …, priority 2017, dated 2025).
Part of at least one peptide drawing is inferred or uncertain, most often the ends. No end group written: not given here.

What was measured:
[1] = tested on: CT26 mouse syngeneic colon tumor model; test: Combination therapy of PD-L1 binding peptides with doxorubicin (tumor volume, body weight, survival, immune cell analysis by flow cytometry); format: in vivo
Description: (§1) 6-8-week-old WT Balb/c mice were purchased. Mice was cared and maintained under the guidelines of the Institutional Animal Care and Use Committee (IACUC) of Kyungpook National University (2014-0001-8.). Tumor was injected onto the lower right flank of the mice. For the in-vivo homing imaging, the tumor was developed for 7 days, after the tumor size reached to 100mm^3, the mice were injected with 100µl of 100mM Flamma-675 NIR fluorescence dye labelled peptides and allow the complete circulation for an hour. After incubation, the mice were anesthetized, and the image was taken using the IVIS imaging system. After completing the imaging, the mice were sacrificed and the tumor along with the other organs were isolated out and subjected to ex-vivo imaging using the IVIS imaging machine. For the antitumor therapy the mice were randomized and grouped after the tumor size was reached to approximately 100mm^3. The peptide was then injected intravenously (5mg/kg) 100µg/mice for 3 weeks, 3 injections/ week. Doxorubicin was injected intraperitoneal (4mg/kg) once a week. Tumor size was measured using a digital caliper, and the tumor volume was calculated using the formula (Volume ¼(L-W-H)/2. (Length: longest dimension, Width: shorter dimension, parallel to the mouse body and Height: perpendicular to the length and width). All mice were checked for the ulceration and at the end of the treatment and the mice were sacrificed for the immune cell analysis.
(§2) Tumors were isolated, minced and incubated with a digestion buffer containing collagenase D (5mg/ml) with the RPMI-1640 medium at 37 °C for 40min. The cell suspension was passed through a cell strainer. The single cell suspension was made ready to use and CD45 antibody was used to stain the tumor infiltrating leukocytes and then analyzed with following antibodies for CD4, CD8 and F4/80. The stained cells were then subjected to flow cytometry (Novocyte).
To enhance the efficacy of immunotherapy with PD-L1-binding peptides, the present inventors combined the peptides with doxorubicin, a chemotherapeutic agent known to induce immunogenic cell death, in CT26 mouse syngeneic colon tumor model. PD-L1 peptides doses were reduced from 12 injections to 9 injections and doxorubicin was given once a week (FIG. 6a). The combination therapy controlled the tumor volume more drastically compared to the previous single treatment (FIG. 6b). In addition, the combination therapy maintained the body weight unchanged compared to the control group, and increased the survival percentage (FIG. 6c and FIG. 6d).

[2] = tested on: CT26 syngeneic mouse model; test: Antitumor therapy with PD-L1 binding peptides alone (tumor volume, body weight, survival, immune cell analysis, immunostaining); format: in vivo; settings: peptide intravenously every alternative day for 24 days; compared to the control peptide and PBS group
Description: as §1, with “After completing the imaging, the mice were sacrificed and the tumor along with the other organs were isolated out and subjected to ex-vivo imaging using the IVIS imaging machine. For the antitumor therapy the mice were randomized and grouped after the tumor size was reached to approximately 100mm^3. The peptide was then injected intravenously (5mg/kg) 100µg/mice for 3 weeks, 3 injections/ week. Doxorubicin was injected intraperitoneal (4mg/kg) once a week.” left out, “analysis. […]” for “analysis.”
as §2, with “The cell suspension was passed through a cell strainer.” left out, “The stained cells were then subjected to flow cytometry (Novocyte).” left out

[3] = tested on: MDA MB231 cells; test: Peptide internalization and receptor internalization assay (confocal); format: cell-based, human; settings: receptor internalization of PD-L1
[4] = 'from' value of the printed increase, apparently single peptide treatment
[5] = 'to' value of the printed increase, apparently combination with doxorubicin

| Substance | CD4+ T cells in tumor tissue [1, 4] | expression percentage of CD8+ T cells in tumor tissue [1, 4] | CD4+ T cells in tumor tissue [1, 5] | expression percentage of CD8+ T cells in tumor tissue [1, 5] | tumor volume [2] | PD-L1 antibody surface staining after peptide internalization [3] |
| --- | --- | --- | --- | --- | --- | --- |
| CVRARTR [PD-L1Pep-2, CVRARTR] | 1% | 3.9% | 6.5% | 7.9% | effectively controlling the tumor volume |  |
| NSSSVDK [control peptide, NSSSVDK] |  |  |  |  |  | did not decrease |
